The experiment addresses FLAG-MazE (E. coli) (UniProt P0AE72). Kind of experiment: affinity purification with mass spectrometry.

Chains of the proteins cited; added tags and fusions are not shown. Lines headed by an entry give the natural chain unless they say otherwise; changes in a name come on top.
UniProt P0AE72, whole entry, stated change not applied: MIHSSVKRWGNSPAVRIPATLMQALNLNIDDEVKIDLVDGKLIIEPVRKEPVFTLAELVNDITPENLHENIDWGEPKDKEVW

No constants are given. Whether binding was seen depends on the method and setting. In cells and extracts the contact can be indirect. These calls come from enrichment with a bait or labelling near it, and not all partners need be listed.

With “MazF(E24A) (from UniProt P0AE70 1-111) (enzyme)”, the binding result is listed as “binds”.

The record behind these values is publication doi:10.1101/2023.02.07.527531.
